Data: paper PMC9515143, “Phosphorylation of Jhd2 by the Ras-cAMP-PKA(Tpk2) pathway regulates histone modifications and autophagy” (Nature Communications, 2022)
Residue numbers refer to the chain shown, from its start. These are yes or no findings as the source states them, for the method shown. Binding seen in cells or lysates may run through a third protein. Some binding calls cover weakened binding; strength is not graded here. For part of these data: Sequences can lack the tags named with a protein.

Tests used:
[1] = target: T1, Tpk2-TAP (S. cerevisiae (budding yeast)) (UniProt P06245); assay: co-IP; Tpk2 immunoprecipitated from Tpk2-TAP cells, Jhd2 detected
T1 sequence: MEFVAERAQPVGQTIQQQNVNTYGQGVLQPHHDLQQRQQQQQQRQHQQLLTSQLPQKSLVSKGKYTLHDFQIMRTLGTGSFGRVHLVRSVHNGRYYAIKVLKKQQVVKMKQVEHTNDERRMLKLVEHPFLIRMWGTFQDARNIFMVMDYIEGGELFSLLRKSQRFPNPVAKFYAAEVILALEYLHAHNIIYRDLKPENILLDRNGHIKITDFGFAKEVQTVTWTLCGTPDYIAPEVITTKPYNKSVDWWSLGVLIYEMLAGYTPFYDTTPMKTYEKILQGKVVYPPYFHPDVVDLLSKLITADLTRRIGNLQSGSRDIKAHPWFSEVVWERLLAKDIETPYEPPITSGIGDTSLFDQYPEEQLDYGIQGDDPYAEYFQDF

[2] = target: T2, Jhd2-FLAG (S. cerevisiae (budding yeast)) (UniProt P47156); assay: co-IP; yeast whole cell extract digested with MNase, anti-FLAG M2 agarose 1 hr 4 °C, washed with 350 mM NaCl, 0.1% NP-40, Western blots; WT and tpk2Δ cells
T2 sequence (chain, phosphoserine at 321 and 340 (phosphorylated in vivo by Tpk2; extent not stated)): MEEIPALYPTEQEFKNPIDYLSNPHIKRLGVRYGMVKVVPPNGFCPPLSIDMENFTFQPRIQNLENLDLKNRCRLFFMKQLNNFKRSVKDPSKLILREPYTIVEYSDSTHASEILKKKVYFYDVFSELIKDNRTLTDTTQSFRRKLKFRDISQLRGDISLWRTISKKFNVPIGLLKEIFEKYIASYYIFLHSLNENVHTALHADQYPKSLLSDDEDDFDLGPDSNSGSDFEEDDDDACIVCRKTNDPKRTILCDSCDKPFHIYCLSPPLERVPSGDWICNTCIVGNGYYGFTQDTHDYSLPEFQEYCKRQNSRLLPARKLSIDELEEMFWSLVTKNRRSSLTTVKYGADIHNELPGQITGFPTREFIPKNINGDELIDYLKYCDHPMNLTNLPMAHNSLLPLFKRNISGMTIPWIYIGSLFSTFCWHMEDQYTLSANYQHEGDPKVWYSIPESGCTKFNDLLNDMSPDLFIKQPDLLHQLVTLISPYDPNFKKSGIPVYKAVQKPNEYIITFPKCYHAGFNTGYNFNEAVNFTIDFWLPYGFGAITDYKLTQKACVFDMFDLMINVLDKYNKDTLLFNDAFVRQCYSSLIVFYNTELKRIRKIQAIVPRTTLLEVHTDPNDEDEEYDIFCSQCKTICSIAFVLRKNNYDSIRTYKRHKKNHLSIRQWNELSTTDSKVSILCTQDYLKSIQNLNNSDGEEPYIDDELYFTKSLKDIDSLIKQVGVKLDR

[3] = target: T3, Jhd2-S321A, S340A-FLAG (S. cerevisiae (budding yeast)) (UniProt P47156); assay: as above
T3 sequence: T2 sequence (chain, phosphoserine at 321 and 340 (phosphorylated in vivo by Tpk2; extent not stated)) with S321A, S340A

[4] = target: T2, Jhd2-FLAG (S. cerevisiae (budding yeast)); assay: co-IP; in vitro: purified Jhd2 on anti-FLAG beads, with or without phosphorylation by purified Tpk2, then incubated with Rpd3
[5] = target: T3, Jhd2-S321A, S340A-FLAG (S. cerevisiae (budding yeast)); assay: as above
[6] = target: T4, Tpk2-phosphorylated Jhd2-FLAG (S. cerevisiae (budding yeast)) (UniProt P47156); assay: as above
T4 sequence (chain, phosphoserine at 321 and 340 (by purified Tpk2 in vitro)): T2 sequence (chain, phosphoserine at 321 and 340 (phosphorylated in vivo by Tpk2; extent not stated))

“Jhd2 (in Tpk2-TAP cells) (from UniProt P47156 1-728) (enzyme)” was tested, and the binding [1] was “binds”.

B1: Rpd3 (enzyme, UniProt P32561 1-433)
chain: MVYEATPFDPITVKPSDKRRVAYFYDADVGNYAYGAGHPMKPHRIRMAHSLIMNYGLYKKMEIYRAKPATKQEMCQFHTDEYIDFLSRVTPDNLEMFKRESVKFNVGDDCPVFDGLYEYCSISGGGSMEGAARLNRGKCDVAVNYAGGLHHAKKSEASGFCYLNDIVLGIIELLRYHPRVLYIDIDVHHGDGVEEAFYTTDRVMTCSFHKYGEFFPGTGELRDIGVGAGKNYAVNVPLRDGIDDATYRSVFEPVIKKIMEWYQPSAVVLQCGGDSLSGDRLGCFNLSMEGHANCVNYVKSFGIPMMVVGGGGYTMRNVARTWCFETGLLNNVVLDKDLPYNEYYEYYGPDYKLSVRPSNMFNVNTPEYLDKVMTNIFANLENTKYAPSVQLNHTPRDAEDLGDVEEDSAEAKDTKGGSQYARDLHVEHDNEFY
B1 was tested, and the binding [2] was “binds” and the binding [3] was “binds”.

B2: Rpd3 (in vitro Co-IP) (enzyme, UniProt P32561 1-433)
chain: B1 chain
With B2 the binding [4] was “binds”, the binding [5] was “binds” and the binding [6] was “binds”.
